Where a chain is given by its changes, count along the chain named. Weaker means in comparison with the reference protein, sequence or condition of that experiment. Tags and fusion partners may be left off the protein sequences shown. For part of these data: For at least one entry, the source does not settle the construct or the ends of the probe. For part of these data: At least one verdict was read from the data and is not stated in words by the source.
Key:
Assay in all cases: fluorescence anisotropy
Details in all cases: 3 uM pentamer, range for all nine mutants; FP: 20 mM Tris pH 8.0, 100 mM KCl, 200 nM DNA; recombinant protein; residues 1-144; protein details: N-terminal 6His; label: 5' 6-FAM; single-stranded DNA
[1] = target: T1, DdrB K102A (Deinococcus radiodurans) (UniProt Q9RY80)
T1 sequence (looked up): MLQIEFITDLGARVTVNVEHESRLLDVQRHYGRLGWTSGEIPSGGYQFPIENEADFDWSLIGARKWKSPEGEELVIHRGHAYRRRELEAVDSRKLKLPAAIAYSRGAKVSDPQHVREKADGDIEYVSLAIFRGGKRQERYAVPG

[2] = target: T2, DdrB K108A (Deinococcus radiodurans) (UniProt Q9RY80)
T2 sequence (looked up): T1 sequence (looked up) with A102K, K108A

[3] = target: T3, DdrB K135A (Deinococcus radiodurans) (UniProt Q9RY80)
T3 sequence (looked up): T1 sequence (looked up) with A102K, K135A

[4] = target: T4, DdrB K94A (Deinococcus radiodurans) (UniProt Q9RY80)
T4 sequence (looked up): T1 sequence (looked up) with K94A, A102K

[5] = target: T5, DdrB R132A (Deinococcus radiodurans) (UniProt Q9RY80)
T5 sequence (looked up): T1 sequence (looked up) with A102K, R132A

[6] = target: T6, DdrB R64A (Deinococcus radiodurans) (UniProt Q9RY80)
T6 sequence (looked up): T1 sequence (looked up) with R64A, A102K

[7] = target: T7, DdrB R83A (Deinococcus radiodurans) (UniProt Q9RY80)
T7 sequence (looked up): T1 sequence (looked up) with R83A, A102K

[8] = target: T8, DdrB R85A (Deinococcus radiodurans) (UniProt Q9RY80)
T8 sequence (looked up): T1 sequence (looked up) with R85A, A102K

[9] = target: T9, DdrB W66A (Deinococcus radiodurans) (UniProt Q9RY80)
T9 sequence (looked up): T1 sequence (looked up) with W66A, A102K

Measured: binding result

TTTTTTTTTTTTTTTTTTTT [20b poly dT]
binds more weakly: all assays above
